{
  "source": "paper PMC5749160",
  "about": "“Disruption of an RNA-binding hinge region abolishes LHP1-mediated epigenetic repression”",
  "molecular_target": "T1, GST-LHP1 KR9A R166A,K167A,R168A,K169A,R170A,K171A,K180A,K181A,K182A (Arabidopsis thaliana (Col-0 cDNA)) (UniProt Q946J8)",
  "T1 sequence (looked up, limits assumed)": "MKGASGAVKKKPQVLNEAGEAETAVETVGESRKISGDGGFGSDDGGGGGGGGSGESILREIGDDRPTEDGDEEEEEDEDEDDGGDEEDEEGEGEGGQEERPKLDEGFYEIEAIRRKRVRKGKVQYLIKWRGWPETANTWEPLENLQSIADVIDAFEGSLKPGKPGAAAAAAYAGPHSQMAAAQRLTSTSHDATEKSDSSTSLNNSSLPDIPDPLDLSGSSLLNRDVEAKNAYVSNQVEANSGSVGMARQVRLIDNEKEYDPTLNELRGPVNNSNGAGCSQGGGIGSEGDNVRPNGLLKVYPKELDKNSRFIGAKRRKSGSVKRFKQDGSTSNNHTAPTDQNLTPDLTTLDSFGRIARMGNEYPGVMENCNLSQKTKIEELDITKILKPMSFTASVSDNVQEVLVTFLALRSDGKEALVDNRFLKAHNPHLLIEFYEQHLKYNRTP",
  "assay": "EMSA",
  "details": "EMSA: 20 mM HEPES-KOH pH 7.5, 100 mM KCl, 0.05% NP-40, 10 nM Cy5 probe (1 uL of 100 nM + 9 uL protein), 30 min room temperature; 1.6% TBE-agarose gel; recombinant protein; protein details: N-terminal GST (pGEX-4T-1); label: 5' Cy5",
  "note": "Construct, isoform or probe ends are uncertain for at least one entry. The comparison behind a weaker result is the experiment's own reference, which may not be listed here. Protein sequences can lack the tags named with them.",
  "data": [
    {"sequence": "CUCCUCCGGCGAUAAGUACGCCUUUUCCUUACCUGGGUUU [FLC 40-nt ssRNA]", "values": [
      {"measurement": "binding result", "result": "binds more weakly"}
    ]}
  ]
}
